The target in the assay is mouse CD40 with the CD154-interacting domain knocked out (B6.CD40KO) (mouse). The experiment in a line: flow cytometry, FITC-conjugated KGYY6 on PBMC.

Results on one molecule are retold here after patent publication US20200297795A1.

These are yes or no findings as the source states them, for the method shown.

B1: FITC-conjugated KGYY6 peptide (peptide)
peptide: AKKGYY
modifications: FITC-conjugated (site of the label not stated)
For B1, the binding result is “no binding”.
